This assay is described as follows: qHTS Assay for Lipid Storage Modulators in Drosophila S3 Cells.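 On cell number change: cells counted by Cell Tracker Red CMTPX staining in the red channel.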 The note with it: BODIPY lipid droplet fluorescence, 18-24 h; for cell number change: measured here: cell count max response, cells fed with added oleic acid. An outline of the steps:
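Drosophila S3 cells got compounds at several concentrations plus oleic acid (400 uM solution). Laser-scanning cytometry with 488 nm excitation read lipid droplets at 500-530 nm and cells at 575-640 nm. Percent activity was relative to 20 uM Triacsin C.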
On the technique in general: In qHTS, concentration-response curves come from the screen itself.

[1] abbreviates: measured here: cell number channel AC50, cells fed with added oleic acid.
[2] abbreviates: measured here: lipid fluorescence (Fed channel) AC50, cells fed with added oleic acid.

SMILES strings stand for the structures. The list shows a part of the results. Shown are side measurements of this screen, not its main read-out; they come without a call. Most of these compounds were active or inconclusive in the main read-out, so they are no random draw. The note in brackets gives the kind of curve behind each potency; many fits are weak.

By AC50 is commonly meant the midpoint of the concentration-response curve, whichever way the signal moves. As to `S=C(NCc1ccc(Cl)cc1Cl)Nc1ccccc1`, the AC50 reads like this: under setting [1], 0.517 µM [rising, single point]; under setting [2], 29.1 µM [falling, single point].

For `Cc1ccc(NC(=S)NCc2cccn2C)cc1`, the cell number change was determined as 2.37%.

As to `O=C1CCCN1CCC1CCN(C(=O)Nc2ccccc2)CC1`, the AC50 under setting [2] is 6.51 µM [falling, single point].

As for `Cc1ccc(C(=O)N/C(=C\c2ccc(-c3ccc(Cl)cc3)o2)C(=O)NCCCN(C)C)cc1`, the cell number change was -24.5%. Moreover, under setting [1], the AC50 is 2.06 µM [falling, full curve, poor fit]. Moreover, the AC50 under setting [2] was 1.64 µM [falling, partial curve, poor fit].

Regarding `O=S(=O)(NCCCN1CCOCC1)c1ccc(F)c(Cl)c1`, the cell number change was -46.7%. The AC50 under setting [1] is 0.651 µM [falling, full curve]. In addition, the half-maximal activity concentration (AC50) under setting [2] is 0.517 µM [falling, full curve].

As to `COC(=O)c1cc(NC(=O)C2CC(=O)NC(=NCc3ccc(OC)cc3)S2)cc(C(=O)OC)c1` (centres undefined), the cell number change came to 5.13%. Further, the AC50 under setting [2] is 29.1 µM [rising, single point].

`Cc1ccc(C)c2[nH]c(=O)c(CCNC(=O)c3cccs3)cc12`: the cell number change was 25.7%. For the same compound, the AC50 under setting [1] is 0.0326 µM [rising, full curve, poor fit]. Further, the AC50 under setting [2] is 6.51 µM [rising, single point].

`CCOc1ccc(/C(C)=N\NC(=O)Cc2ccccc2)cc1`: the cell number change was 15.1%. Moreover, the AC50 under setting [2] is 29.1 µM [falling, single point].

For `Cc1nnsc1C(=O)NC1CCCc2c1cnn2-c1ccc(C(C)(C)C)cc1` (centres undefined), the cell number change was -68.3%. Besides, the AC50 under setting [1] is 7.31 µM [falling, partial curve]. Further, the AC50 under setting [2] is 4.61 µM [falling, full curve].

On to `O=C(OCc1c(F)cccc1Cl)c1cccnc1Cl`, for which the cell number change came to 15.4%. In addition, the AC50 under setting [1] was 0.82 µM [rising, single point].

`S=c1[nH]nc(C2COc3ccccc3O2)o1` (centres undefined): the cell number change stood at 27.1%. Besides, the AC50 under setting [1] was 3.26 µM [rising, full curve, poor fit].

`COc1ccc(CCNC(=O)CSc2ccc(-c3cccs3)nn2)cc1OC`: the cell number change was -19.4%. Under setting [2], the AC50 is 23.1 µM [falling, single point].

`CCOc1ccccc1OCC(=O)OCC(=O)Nc1ncc(Cl)cc1Cl`: the cell number change stood at 10.3%.

With `CN1CCN(Cc2ccc(-c3ccc(Cl)cc3)o2)CC1`, the cell number change is -1.36%. The AC50 under setting [2] is 25.9 µM [falling, partial curve].

Take `Cc1c(NS(C)(=O)=O)c(=O)n(-c2ccccc2)n1C`: the cell number change was -39.2%. Under setting [1], the AC50 was 16.4 µM [falling, single point]. Besides, the AC50 under setting [2] was 29.1 µM [falling, single point].

Regarding `O=C(c1cc(C(=O)N2CCCC2)cc([N+](=O)[O-])c1)N1CCCC1`, the cell number change is 9.21%. Besides, the AC50 under setting [2] is 18.4 µM [falling, single point].

Turning to `CCOC(=O)c1ccc(S(=O)(=O)N2CCN(C)CC2)cc1`, the cell number change amounted to 43.2%. In addition, the AC50 under setting [1] was 20.6 µM [rising, single point]. Also, the AC50 under setting [2] was 18.4 µM [rising, single point].

Take `N#Cc1ccc(OCCOCCNC2CCCC2)cc1`: the cell number change stood at 9.2%.

Regarding `Cc1ccc(C)c(N(CC(=O)NC2CCCCC2)C(=O)CNC(=O)c2ccco2)c1`, the cell number change amounted to 22.1%.

With `CC(=O)Nc1cccc(Nc2nc(-c3cccs3)nc3ccccc23)c1`, the cell number change was 20.2%. Moreover, the AC50 under setting [2] was 5.8 µM [falling, full curve].

`CN(C(=O)c1ccc(Oc2ccc([N+](=O)[O-])cc2)cc1)C1CCCCC1`: the cell number change was -48.3%. Under setting [1], the AC50 was 18.4 µM [falling, single point].

As for `C=CCOc1ccc(C(c2c(C(=O)O)[nH]c3ccccc23)c2c(C(=O)O)[nH]c3ccccc23)cc1`, the cell number change is -41.4%. Under setting [1], the AC50 was 0.206 µM [falling, partial curve].

Regarding `O=[N+]([O-])c1cccc(NN=Nc2ccccc2)c1`, the cell number change is -33.3%. Further, the concentration at half-maximal activity (AC50) under setting [1] is 29.1 µM [falling, single point].

As for `CCOC(=O)c1c(C)[nH]c(C(=O)Nc2ccc(C)c(Cl)c2)c1C`, the cell number change is -16.8%. The AC50 under setting [1] is 1.46 µM [rising, partial curve]. The AC50 under setting [2] is 1.64 µM [rising, partial curve].

For `Cc1ccccc1/C=N/NC(=O)c1ccc(-n2cnnn2)cc1`, the cell number change stood at 43.1%. Under setting [1], the AC50 is 18.4 µM [rising, single point]. Further, under setting [2], the AC50 is 1.03 µM [rising, full curve].

With `O=C(COC(=O)C1CCCN1C(=O)c1cccs1)c1ccccc1` (centres undefined), the cell number change is -4.83%. Also, under setting [2], the AC50 was 0.651 µM [rising, partial curve, poor fit].

For the compound `Cc1ccc(NC(=O)CN(c2ccc(C)cc2)S(=O)(=O)c2cccc3nonc23)cc1`, the cell number change was -0.119%. Under setting [2], the AC50 is 1.16 µM [rising, full curve].

Regarding `COc1cccc(CNC(=O)c2cc(C)nc3ccccc23)c1`, the cell number change was 14.2%. Also, the AC50 under setting [2] was 16.4 µM [rising, single point].

Regarding `CCCn1c(SCC(=O)NC2CCCC2)nnc1C(C)C`, the cell number change came out at 23.8%. Moreover, the AC50 under setting [2] is 11.6 µM [rising, partial curve].

In the case of `CC1(C)C2CCC1(CS(=O)(=O)NCCc1c[nH]c3ccccc13)C(=O)C2` (centres undefined), the cell number change was determined as 4.76%. Moreover, the AC50 under setting [2] was 29.1 µM [rising, partial curve].

In the case of `CCOC(=O)C1CCN(Cc2cc(=O)n3c(-c4ccccc4)csc3n2)CC1`, the cell number change is -24.1%. Moreover, under setting [2], the AC50 is 29.1 µM [falling, single point].

For `Cc1ccc(Nc2nnc(SCc3cc(=O)n4cc(C)ccc4n3)s2)cc1`, the cell number change amounted to 17.7%. Further, the AC50 under setting [1] is 0.82 µM [rising, partial curve]. For the same compound, the AC50 under setting [2] is 0.116 µM [rising, full curve].

For `O=C(NNC(=O)C12CC3CC(CC(C3)C1)C2)c1ccccn1`, the cell number change was -18.6%. Moreover, the AC50 under setting [2] is 29.1 µM [falling, single point].

With `O=C(CSc1nnc(-c2cccnc2)n1-c1ccccc1)Nc1ccccn1`, the cell number change was 10.5%. Moreover, the AC50 under setting [2] is 2.06 µM [rising, partial curve].

Consider `CCOc1ccccc1NC(=O)C(OC(=O)c1cnccn1)c1ccccc1` (centres undefined), for which the AC50 under setting [2] was 0.58 µM [rising, single point].

Regarding `O=C(N=C1SC2CS(=O)(=O)CC2N1c1cccc(Cl)c1)C1CCCO1` (centres undefined), the cell number change turned out to be 11%.

`O=C1c2cccc3cccc(c23)C(=O)N1c1ccccn1`: the cell number change turned out to be 18%. For the same compound, under setting [2], the AC50 is 0.164 µM [rising, full curve, poor fit].

Take `Cc1ccc(C)c(N2CCN(CCCNC(=O)Cn3cc4c(n3)CCC(C)C4)CC2)c1` (centres undefined): the cell number change was -44%. Moreover, the AC50 under setting [1] was 32.6 µM [falling, single point]. The AC50 under setting [2] is 29.1 µM [falling, single point].

As for `CC(NC(=O)Nc1cccc([N+](=O)[O-])c1)c1ccc2c(c1)OCO2` (centres undefined), the cell number change was -51.5%. Further, the AC50 under setting [1] was 29.1 µM [falling, single point].

In the case of `O=C1CC(c2cccnc2)c2cc3c(cc2N1)OCO3` (centres undefined), the cell number change was determined as 1.42%. Besides, the AC50 under setting [2] is 0.082 µM [rising, full curve, poor fit].

For the compound `CCC(C)C(=O)Nc1nc(C)c(-c2csc(Nc3cc(Cl)ccc3OC)n2)s1` (centres undefined), the cell number change was -29.6%. In addition, the AC50 under setting [2] is 5.17 µM [falling, full curve, poor fit].

Turning to `COC(=O)C1CCCCN1C(=O)c1ccc2oc(Cc3ccccc3)nc2c1` (centres undefined), the cell number change is -13.9%. Moreover, under setting [1], the AC50 is 0.461 µM [falling, full curve, poor fit].

Consider `COc1ccc(C(C)=O)cc1CSc1ccc2c(c1)OCCO2`, for which the cell number change is -27.8%. Further, the AC50 under setting [2] was 7.31 µM [falling, single point].

For `Cc1ccc(OC(C)C)c(CN(CCO)CCO)c1`, the cell number change is -3.33%. In addition, the AC50 under setting [2] is 1.03 µM [falling, full curve].

Consider `Cc1c(C(=O)N2CCOCC2)oc2ccc(S(=O)(=O)N3CCCCCC3)cc12`, for which the cell number change is -11.2%. The AC50 under setting [2] is 25.9 µM [rising, partial curve].

For `Cc1ccc(NC(=O)CC(=O)Nc2ccc(C)cc2C)c(C)c1`, the cell number change was determined as 37.8%. Also, the concentration at half-maximal activity (AC50) under setting [2] was 6.51 µM [rising, single point].

Take `CCc1cccc(NC2c3ccccc3C(=O)N2c2cccnc2)c1` (centres undefined): the cell number change was found to be 30.4%. Besides, the AC50 under setting [1] was 7.31 µM [rising, partial curve]. In addition, under setting [2], the AC50 was 2.91 µM [rising, partial curve].

On to `COc1ccc(OC)c(/C=C2\SC(N3CCCCC3)=NC2=O)c1`, for which the cell number change came to 23.4%. For the same compound, the AC50 under setting [2] is 0.58 µM [rising, single point].

For the compound `COc1cnn(-c2ccccc2)c(=O)c1N(C)C`, the cell number change turned out to be 5%. The AC50 under setting [2] was 0.13 µM [falling, full curve, poor fit].

`O=C(COc1ccc(Br)cc1)Nc1nnc(C2CC2)s1`: the cell number change stood at 4.15%. In addition, the AC50 under setting [2] is 0.0146 µM [rising, full curve, poor fit].

On to `Cc1cccc(N2C(=O)N3[C@H](c4ccc(F)cc4)[C@@H]4C(=O)N(C5CCCCC5)C(=O)[C@@H]4[C@]3(Cc3ccc(Cl)cc3)C2=O)c1`, for which, under setting [2], the AC50 was 29.1 µM [falling, single point].

Take `CCc1cccc(NS(=O)(=O)c2ccc3c(c2)NC(=O)CC(=O)N3)c1`: the cell number change stood at 1.91%. Further, the concentration at half-maximal activity (AC50) under setting [2] is 0.13 µM [falling, full curve, poor fit].

With `Oc1cccc(Nc2ncnc3c2oc2ccccc23)c1`, the cell number change was -20.8%.

For the compound `CCOC(=O)c1ccc(NC(=S)N2CCSC2c2ccc(Cl)cc2)cc1` (centres undefined), the cell number change is -7.57%. Besides, the AC50 under setting [2] is 1.03 µM [rising, full curve].

On to `CCOC(=O)N1CCN(C(=O)CN(c2cccc(C)c2)S(=O)(=O)c2ccc(C)cc2)CC1`, for which, under setting [2], the AC50 is 6.51 µM [falling, partial curve].

For the compound `O=C(NC1CCCC1)c1cc(COc2ccc3ncccc3c2)on1`, the cell number change is -19.9%. The AC50 under setting [2] is 23.1 µM [falling, single point].

Consider `COc1cc(C(C)=O)ccc1Oc1ccc(S(=O)(=O)N2CCOCC2)cn1`, for which the cell number change was -8.27%.

For `CCOc1ccc(Cn2nnc(C(=O)Nc3cc(C)cc(C)c3)c2N)cc1`, the AC50 under setting [2] was 29.1 µM [rising, single point].

Regarding `COc1ccc(CN2Cc3cccc4c3[C@@H](CC2=O)[C@H](O)[C@H](O)C4)cc1`, the cell number change was found to be 6.38%. Under setting [2], the AC50 is 29.1 µM [rising, single point].

On to `O=C(CSc1nnc(Cc2ccccc2)o1)N1CCCC1`, for which the cell number change amounted to 20.7%. Moreover, the AC50 under setting [2] is 0.731 µM [falling, single point].

Source of the values: PubChem BioAssay AID2685 (National Center for Advancing Translational Sciences (NCATS), 2010).
